Laboratory results taken from PMC4229197.
These are yes or no findings as the source states them, for the method shown.

Key:
[1] = target: Cry35Ab1 (Bacillus thuringiensis strain PS149B1) (UniProt Q939S9); assay: crystal structure; each protein crystallised alone; one molecule per asymmetric unit; Cry34Ab1 2.15 Å (I422), Cry35Ab1 1.80 Å (P212121); both purified
[2] = target: Cry34Ab1 (Bacillus thuringiensis strain PS149B1) (UniProt Q939T0); assay: as above
[3] = target: Cry34Ab1 (Bacillus thuringiensis strain PS149B1) (UniProt Q939T0); assay: small angle X-ray scattering (SAXS); each protein alone, 2.07 to 6.86 mg/mL in 20 mM sodium citrate pH 3.3; synchrotron beamline 5-ID-D; envelopes compared with the crystal structures; both purified
[4] = target: Cry34Ab1 (Bacillus thuringiensis strain PS149B1) (UniProt Q939T0); assay: native MS; native nano-electrospray ion mobility mass spectrometry, each protein alone in 0.1% formic acid (pH 3.0); Cry34Ab1 approximately 12.9 µM, trCry35Ab1 approximately 15.9 µM; drift tube 27°C, nitrogen; both purified
[5] = target: truncated Cry35Ab1 (residues 1-354) (Bacillus thuringiensis strain PS149B1) (UniProt Q939S9); assay: small angle X-ray scattering (SAXS); each protein alone, 2.07 to 6.86 mg/mL in 20 mM sodium citrate pH 3.3; synchrotron beamline 5-ID-D; envelopes compared with the crystal structures; both purified
[6] = target: truncated Cry35Ab1 (residues 1-354) (Bacillus thuringiensis strain PS149B1) (UniProt Q939S9); assay: native MS; native nano-electrospray ion mobility mass spectrometry, each protein alone in 0.1% formic acid (pH 3.0); Cry34Ab1 approximately 12.9 µM, trCry35Ab1 approximately 15.9 µM; drift tube 27°C, nitrogen; both purified

Cry35Ab1 (from UniProt Q939S9 1-383)
binding [1]: no binding

B1: Cry34Ab1 (protein, UniProt Q939T0 1-123)
chain: MSAREVHIDVNNKTGHTLQLEDKTKLDGGRWRTSPTNVANDQIKTFVAESNGFMTGTEGTIYYSINGEAEISLYFDNPFAGSNKYDGHSNKSQYEIITQGGSGNQSHVTYTIQTTSSRYGHKS
binding [2]: no binding
binding [3]: no binding (tested: 2.07 to 6.86 mg/mL)
binding [4]: no binding (tested: approximately 12.9 µM)

B2: truncated Cry35Ab1 (residues 1-354) (domain or fragment, UniProt Q939S9 1-354)
chain: MLDTNKVYEISNHANGLYAATYLSLDDSGVSLMNKNDDDIDDYNLKWFLFPIDDDQYIITSYAANNCKVWNVNNDKINVSTYSSTNSIQKWQIKANGSSYVIQSDNGKVLTAGTGQALGLIRLTDESSNNPNQQWNLTSVQTIQLPQKPIIDTKLKDYPKYSPTGNIDNGTSPQLMGWTLVPCIMVNDPNIDKNTQIKTTPYYILKKYQYWQRAVGSNVALRPHEKKSYTYEWGTEIDQKTTIINTLGFQINIDSGMKFDIPEVGGGTDEIKTQLNEELKIEYSHETKIMEKYQEQSEIDNPTDQSMNSIGFLTITSLELYRYNGSEIRIMQIQTSDNDTYNVTSYPNHQQALL
binding [5]: no binding (tested: 2.07 to 6.86 mg/mL)
binding [6]: no binding (tested: approximately 15.9 µM)
